These are yes or no findings as the source states them, for the method shown. For some assays here: Binding calls can cover weak binding; strength is not graded here.
How the values were obtained:
Test in all cases: two-hybrid; BACTH screen among a subset of 20 Inc proteins in E. coli DHT1: a pST25-inc bait with a pool of the pUT18C-inc plasmids, blue colonies sequenced; and pairwise co-transformations with β-galactosidase of eight colonies; interaction = activity at least 5 times the negative control
[1] = molecular target: Ct222 (Chlamydia trachomatis (serovar D/UW-3/CX or L2)) (UniProt O84225)
[2] = molecular target: T1, IncE (Ct116) (Chlamydia trachomatis (serovar D/UW-3/CX or L2)) (UniProt P0DJI4)
T1 sequence: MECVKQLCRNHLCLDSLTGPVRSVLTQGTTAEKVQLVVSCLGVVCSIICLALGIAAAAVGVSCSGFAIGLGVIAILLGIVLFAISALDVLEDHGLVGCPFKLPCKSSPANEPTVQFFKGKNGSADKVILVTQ

[3] = molecular target: T2, IncD (Ct115) (Chlamydia trachomatis (serovar D/UW-3/CX or L2)) (UniProt P0DJI3)
T2 sequence: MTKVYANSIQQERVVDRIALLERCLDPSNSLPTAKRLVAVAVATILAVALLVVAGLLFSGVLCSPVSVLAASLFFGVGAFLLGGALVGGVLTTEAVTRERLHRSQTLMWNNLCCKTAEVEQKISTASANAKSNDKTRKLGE

[4] = molecular target: T3, IncF (Ct117) (Chlamydia trachomatis (serovar D/UW-3/CX or L2)) (UniProt P0DJI5)
T3 sequence: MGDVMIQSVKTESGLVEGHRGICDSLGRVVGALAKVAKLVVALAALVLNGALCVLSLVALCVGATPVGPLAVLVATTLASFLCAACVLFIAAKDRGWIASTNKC

[5] = molecular target: Ct229 (Chlamydia trachomatis (serovar D/UW-3/CX or L2)) (UniProt O84232)
[6] = molecular target: T4, Ct005 (Chlamydia trachomatis (serovar D/UW-3/CX or L2)) (UniProt O84008)
T4 sequence: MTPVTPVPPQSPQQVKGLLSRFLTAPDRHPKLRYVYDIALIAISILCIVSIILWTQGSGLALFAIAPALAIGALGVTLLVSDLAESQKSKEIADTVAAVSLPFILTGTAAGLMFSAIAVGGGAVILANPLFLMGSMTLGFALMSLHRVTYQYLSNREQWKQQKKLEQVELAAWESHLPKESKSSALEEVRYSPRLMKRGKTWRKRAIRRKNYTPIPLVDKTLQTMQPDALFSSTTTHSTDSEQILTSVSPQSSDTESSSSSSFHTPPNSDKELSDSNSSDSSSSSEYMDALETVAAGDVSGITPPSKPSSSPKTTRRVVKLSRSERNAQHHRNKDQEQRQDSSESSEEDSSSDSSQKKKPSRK

[7] = molecular target: Ct850 (Chlamydia trachomatis (serovar D/UW-3/CX or L2)) (UniProt O84858)
[8] = molecular target: Ct101 (Chlamydia trachomatis (serovar D/UW-3/CX or L2))
[9] = molecular target: Ct134 (Chlamydia trachomatis (serovar D/UW-3/CX or L2))
[10] = molecular target: Ct135 (Chlamydia trachomatis (serovar D/UW-3/CX or L2))
[11] = molecular target: Ct227 (Chlamydia trachomatis (serovar D/UW-3/CX or L2))
[12] = molecular target: IncA (Ct119) (Chlamydia trachomatis serovar L2)
[13] = molecular target: IncB (Ct232) (Chlamydia trachomatis (serovar D/UW-3/CX or L2))
[14] = molecular target: Ct058 (Chlamydia trachomatis (serovar D/UW-3/CX or L2))
[15] = molecular target: Ct249 (Chlamydia trachomatis (serovar D/UW-3/CX or L2)) (UniProt O84251)

For Ct224 (from UniProt O84227), the binding [1] was “binds”.

With Ct101 the binding [2] was “no binding”.

For Ct058, the binding [3] was “binds”, the binding [2] was “no binding” and the binding [4] was “binds”.

With Ct223 (from UniProt O84226) the binding [1] was “binds”, the binding [5] was “binds” and the binding [2] was “no binding”.

Ct225 (from UniProt O84228) was tested, and the binding [2] was “no binding”.

With Ct850 (from UniProt O84858) the binding [1] was “binds”, the binding [2] was “no binding” and the binding [4] was “binds”.

With Ct249 (from UniProt O84251) the binding [2] was “no binding” and the binding [4] was “binds”.

For IncA (Ct119) (from UniProt A0A0H3MD02), the binding [6] was “binds”, the binding [2] was “no binding” and the binding [4] was “binds”.

In the case of IncB (Ct232), the binding [2] is reported as “no binding”.

Ct135 was tested, and the binding [2] was “no binding”.

Ct229 (from UniProt O84232) was tested, and the binding [2] was “no binding”.

In the case of Ct222 (from UniProt O84225), the binding [5] is reported as “binds”, the binding [7] is reported as “binds” and the binding [3] is reported as “binds”. For the same molecule, the binding [2] was “no binding”.

With Ct813 (from UniProt O84819) the binding [2] was “no binding”.

With IncC (Ct233) the binding [2] was “no binding” and the binding [4] was “binds”.

With Ct227 the binding [2] was “no binding”.

With Ct134 the binding [2] was “no binding”.

B1: Ct005 (protein, UniProt O84008 1-363)
chain: T4 sequence
In the case of B1, the binding [8] is reported as “no binding”, the binding [9] is reported as “no binding” and the binding [10] is reported as “no binding”. The binding [11] was “no binding”, the binding [12] was “binds” and the binding [13] was “no binding”.

B2: IncE (Ct116) (protein, UniProt P0DJI4 1-132)
chain: T1 sequence
In the case of B2, the binding [8] is reported as “no binding”, the binding [9] is reported as “no binding” and the binding [10] is reported as “no binding”. The binding [11] was “no binding” and the binding [13] was “no binding”.

B3: IncG (Ct118) (protein, UniProt P0DPS6 1-167)
chain: MICCDKVLSSVQSMPVIDKCSVTKCLQTAKQAAVLALSLFAVFASGSLSILSAAVLFSGTAAVLPYLLILTTALLGFVCAVIVLLRNLSAVVQSCKKRSPEEIEGAARPSDQQESGGRLSEESASPQASPTSSTFGLESALRSIGDSVSGAFDDINKDNSRSRSHSF
B3 was tested, and the binding [8] was “no binding”, the binding [9] was “no binding” and the binding [10] was “no binding”. For the same molecule, the binding [11] was “no binding” and the binding [13] was “no binding”.

B4: IncD (Ct115) (protein, UniProt P0DJI3 1-141)
chain: T2 sequence
In the case of B4, the binding [14] is reported as “binds”, the binding [8] is reported as “no binding” and the binding [9] is reported as “no binding”. The binding [10] was “no binding”, the binding [1] was “binds” and the binding [11] was “no binding”. The binding [5] was “binds”, the binding [12] was “binds” and the binding [13] was “no binding”.

B5: IncF (Ct117) (protein, UniProt P0DJI5 1-104)
chain: T3 sequence
With B5 the binding [8] was “no binding”, the binding [9] was “no binding” and the binding [10] was “no binding”. For the same molecule, the binding [11] was “no binding”, the binding [15] was “binds” and the binding [7] was “binds”. For the same molecule, the binding [12] was “binds” and the binding [13] was “no binding”.
